Our source for the activation values is PubChem BioAssay (NCATS).

The chains behind the UniProt entries cited, without tags or fusion partners.
UniProt P04637, whole entry, looked up: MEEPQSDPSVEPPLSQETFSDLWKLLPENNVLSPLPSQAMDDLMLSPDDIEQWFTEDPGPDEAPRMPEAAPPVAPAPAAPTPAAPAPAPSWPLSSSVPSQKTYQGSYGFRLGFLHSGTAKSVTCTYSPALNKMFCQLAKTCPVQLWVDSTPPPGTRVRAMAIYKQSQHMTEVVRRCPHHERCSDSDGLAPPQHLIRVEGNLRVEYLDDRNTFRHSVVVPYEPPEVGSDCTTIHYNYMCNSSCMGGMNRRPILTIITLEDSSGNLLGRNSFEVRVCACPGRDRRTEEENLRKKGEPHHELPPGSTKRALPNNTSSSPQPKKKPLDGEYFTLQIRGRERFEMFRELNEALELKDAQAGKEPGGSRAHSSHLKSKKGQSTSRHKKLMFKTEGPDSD

This assay has as its target Cellular tumor antigen p53 (Homo sapiens) (UniProt P04637). The assay is described as follows: Primary qHTS for small molecule compounds that upregulate eGFP-tagged delta133p53alpha (in N-terminal) cells. (AID 2060322).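 Also: cells pre-induced with doxycycline then dosed without doxycycline; series mostly up to about 56 µM; 0% = DMSO vehicle and 100% = reference activator; nearly all actives have a fitted effect of over 75% in size.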 The conditions noted are these: NCI-H358 eGFP-delta133p53alpha fluorescence, 24 h; active compounds read high. The text has this: Assay Development and Screening Technology
National Center for Advancing Translational Sciences (NCATS),
National Institute of Health (NIH), Rockville, Maryland
Cellular senescence (CS) is one of the hallmarks of aging and age-related diseases. Senescent cells are characterized by an irreversible growth arrest, an increase in senescence-associated beta-galactosidase (SA-beta-gal) activity and p16INK4a expression, an activation of the DNA damage response pathways, and the emergence of a senescence-associated secretory phenotype (SASP).
Delta133p53alpha, a human/primate-specific p53 protein isoform, delays or inhibits the induction of CS and SASP in various types of human cells, including progeria-derived fibroblasts, primary normal astrocytes, and CD8+ T lymphocytes. […]
Here we report the development and validation of a cell-based quantitative high throughput screening (qHTS) assay in 1,536-well format. This qHTS assay uses the NCI-H358 cell line with doxycycline-inducible expression of enhanced green fluorescent protein (eGFP)-tagged delta133p53alpha, which allows efficient and highly quantitative measurement of the protein levels. […]
1. […] Cells were trypsinized, counted using a Counted 3 Automated Cell Counter (Thermo Fisher), and diluted to a concentration of 200,000 cells/ml. […]

The hits were mostly taken out for another list; the other results follow. Results filed as inconclusive are left out. Activity calls are given as the source filed them. Calls follow the shape of the dose curve; as a rule, active = well fitted activation curve with a large enough effect; inconclusive = small, poorly fitted or top-dose-only effect; inactive = no such curve, though single readings can be large or run the other way.

In the case of `CC(C)(C)c1ccc(O)cc1`, the activation was inactive: 1.69%.
